Here are results for one compound from the supplement of paper PMC8007513.

The assay concerns Trichoderma virens ATCC 9645. Kind of assay: growth yield (OD600) with compound + IPBC relative to untreated control; higher = less growth inhibition. As to conditions: compound concentration: 100 uM, IPBC concentration: 200 ng/ml. The essentials: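 For each 96-well plate, 100 μl aliquots were prepared with Trichoderma virens ATCC 9645 spores suspended at 15,000 spores ml^−1 in potato dextrose broth. The spores had been harvested from potato dextrose agar plates after 7 days. Library compounds were present at 100 μM final, some wells also receiving a biocide at 200 ng ml^−1, and plates were grown at 30 °C with OD600 read on a BioTek EL800 at 40 h and 72 h. Reported growth, relative to the control lacking both agents, is the mean of duplicate screens.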

Counter-ions that a name gives are not always drawn. ± gives the standard error. Most of the strong results are listed elsewhere, so they are rarer here than in the full data.

`CN1[C@@H]2CC[C@H]1C[C@@H](OC(=O)C(O)c1ccccc1)C2` (mixture of isomers) [Homatropine hydrobromide (R,S)] + CCCCNC(=O)OCC#CI [3-iodo-2-propynyl butylcarbamate (IPBC)]: the growth yield reads like this: (40 h) 91.2 ± 4.8%; (72 h) 92.2 ± 3.5%.
